# Data reported in PubChem BioAssay AID2685 (National Center for Advancing Translational Sciences (NCATS), 2010).
# Some of the results follow. Further columns of the screen follow, without active or inactive calls. The list favours compounds with an active or inconclusive main result. Words in brackets tell the shape of the fitted curve; partial curves, single points and poor fits give uncertain potencies.
# Assay: qHTS Assay for Lipid Storage Modulators in Drosophila S3 Cells;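 as to cell number change: cells counted by Cell Tracker Red CMTPX staining in the red channel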
# Conditions: BODIPY lipid droplet fluorescence, 18-24 h; for cell number change: measured here: cell count max response, cells fed with added oleic acid
# How it was run: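 Drosophila S3 cells loaded with oleic acid (400 uM, as added) and compounds at several concentrations; lipid droplets imaged by 488-nm laser-scanning cytometry, 500–530 nm intensity and object ratio to cell channel. Percent activity normalized to 20 uM Triacsin C.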
# [1] = measured here: cell number channel AC50, cells fed with added oleic acid
# [2] = measured here: lipid fluorescence (Fed channel) AC50, cells fed with added oleic acid
SMILES,cell number change [%],AC50 [1],AC50 [2]
COc1ccc(CN2CCN(c3ccccn3)CC2)cc1OCc1ccccc1,-7.67,–,–
COc1ccc(-c2cccc(NS(=O)(=O)c3cc([N+](=O)[O-])ccc3Cl)c2)nn1,27.3,–,–
COc1ccc(-c2cc(C(=O)Nc3cc(OC)c(OC)c(OC)c3)no2)cc1OC,31.6,"4.11 µM [rising, partial curve]","16.4 µM [rising, single point]"
OC(CN1CCNCC1)Cn1c2ccccc2c2ccccc21 (stereo unspecified),-14.9,–,–
Cc1ccc(S(=O)(=O)N2CCCC2C(=O)N(C)Cc2cccs2)cc1 (stereo unspecified),-10.7,–,"6.51 µM [rising, single point]"
CC(C)N(C)CCOC(=O)C1COc2ccccc2O1 (stereo unspecified),2.87,"0.651 µM [rising, full curve, poor fit]",–
CO/N=C(/CS(=O)(=O)c1ccc(C)cc1)c1ccc(OC)cc1,–,"2.06 µM [rising, partial curve]",–
COc1ccc(NC(=O)CN(C)CC(=O)NCC2CCCCC2)cc1,25.3,–,–
CN(C(=O)COC(=O)c1cc2ccccc2cc1O)C1CCCCC1,-1.32,"6.51 µM [falling, single point]",–
Cc1cc(N2CCN(C)CC2)nc2ccc(NC(=S)N3CCCCC3)cc12,-23.2,"3.66 µM [falling, full curve, poor fit]","4.61 µM [falling, single point]"
Cc1cc([N+](=O)[O-])c(C)cc1-c1ccc(/C=N/NC(=O)c2cccnc2)o1,35,"0.0164 µM [rising, full curve, poor fit]",–
COc1ccccc1CNC(=O)CSc1ccccc1,–,–,"7.94 µM [rising, single point]"
CCc1ccc(C(O)(CC(C)C)C(CN2CCOCC2)c2ccccc2)cc1 (stereo unspecified),-35.5,"29.1 µM [falling, single point]","2.06 µM [rising, partial curve]"
CCC1=NN2C(=N)/C(=C/c3c(C)nn(-c4ccccc4)c3Cl)C(=O)N=C2S1,-6.32,–,"23.1 µM [rising, single point]"
O=C(NP(=O)(N1CCOCC1)N1CCOCC1)C1=C(N2CCOCC2)/C(=C\c2ccccc2)CC1,-6.46,"0.146 µM [falling, full curve, poor fit]","18.4 µM [falling, partial curve]"
Clc1cccc(CN2CCN(Cc3ccco3)CC2)c1,9.72,–,–
CCOc1ccc2nc(NS(C)(=O)=O)sc2c1,-20.7,–,–
COc1ccc(Cl)cc1NC(=O)c1noc(C)c1[N+](=O)[O-],-18.8,–,"18.4 µM [falling, single point]"
COc1ccc(-c2c(-c3ccccc3)c(C(=O)C(=O)NCCCN(C)C)n3ccc4cc(OC)c(OC)cc4c23)cc1OC,–,"0.13 µM [falling, full curve, poor fit]",–
Cc1c(CN2CCC(CO)(CCOc3ccccc3)CC2)[nH]c2ccc(Cl)cc12,-72.6,"18.4 µM [falling, single point]","25.9 µM [falling, single point]"

SMILES,cell number change [%],AC50 [1],AC50 [2]
C=CCNc1oc(-c2cccs2)nc1S(=O)(=O)c1ccccc1,27.4,–,–
COc1cccc(-c2nc(CS(=O)CC(=O)NCCc3ccc(C)cc3)c(C)o2)c1 (stereo unspecified),6.45,–,"0.411 µM [falling, partial curve, poor fit]"
O=C(CCCOc1ccc(Cl)cc1)Nc1ccc(N2CCOCC2)cc1,-13.7,–,"0.0651 µM [falling, full curve, poor fit]"
CN(CCCNC(=O)Cn1cc2c(n1)CCCC2)C1CCCCC1,-43.5,"0.731 µM [falling, full curve, poor fit]","2.06 µM [falling, full curve]"
CCOc1c(O)ccc(/C=C2\SC(=S)NC2=O)c1[N+](=O)[O-],-18.8,–,–
COc1ccc(NC(=O)c2cc([N+](=O)[O-])ccc2N2CCCCC2)cc1,0.84,–,"6.51 µM [rising, single point]"
O=c1[nH]c(/C=C\c2cccs2)nc(O)c1[N+](=O)[O-],-14.5,–,"29.1 µM [falling, single point]"
CC(CCc1ccccc1)NC(=O)c1cccc(F)c1 (stereo unspecified),8.09,–,"0.116 µM [falling, full curve, poor fit]"
COc1ccc(/C=N/OCC(=O)N(Cc2ccc(OC)cc2)c2ccccc2C(=O)O)cc1,–,"2.31 µM [falling, partial curve]","20.6 µM [rising, single point]"
COc1ccc(NC(=O)N2C3CCCC2CC(NC(=O)c2ccccc2)C3)cc1 (stereo unspecified),24.3,–,–
COc1ccc(C2CC(c3ccccc3OC(=O)/C=C/c3ccccc3)=NN2C(C)=O)cc1 (stereo unspecified),19.2,"0.291 µM [rising, full curve, poor fit]","1.84 µM [rising, partial curve, poor fit]"
O=C(Nc1ccc(C(=O)NCc2ccccc2)cc1)C1=CSCCO1,-7.98,–,–
Cc1ccc(NC(=O)CSc2nc3c(c(=O)n(C)c(=O)n3C)n2C)cc1,17.5,–,–
C#CCOc1ccc(OC)cc1C(c1c(C)[nH][nH]c1=O)c1c(C)[nH][nH]c1=O,-2.38,–,–
COc1c(C)cc(C(=O)C2CCCN(C(=O)c3ccoc3)C2)cc1C (stereo unspecified),24.1,–,"0.82 µM [rising, full curve, poor fit]"
CCN(CC)CCOCCOc1cc(C)c(Cl)c(C)c1,-103,"32.6 µM [falling, partial curve]","25.9 µM [falling, partial curve]"
CC(C)(CO)NCC(=O)Nc1cc(C(F)(F)F)cc(NC(=O)CNC(C)(C)CO)c1Cl,47,"0.731 µM [rising, full curve, poor fit]",–
COc1ccc(CNCC(O)(c2ccc(Cl)cc2)c2ccc(Cl)cc2)cc1,-64.9,–,–
CCOc1ccc(C2CC(c3cccc(C)c3)n3nc(N)nc3N2)cc1 (stereo unspecified),9.39,–,–
O=C(Nc1nnc(C2CCCCC2)s1)c1ccc(Br)s1,9.47,–,–

SMILES,cell number change [%],AC50 [1],AC50 [2]
O=[N+]([O-])c1cc2c(c(CSc3nnnn3-c3ccc(O)cc3)c1)OCOC2,-44.8,"0.13 µM [falling, full curve, poor fit]",–
CCOc1cccc(-c2cc(C(=O)NN)[nH]n2)c1,19.4,–,"29.1 µM [falling, partial curve]"
COC(=O)CNC(c1ccccc1)c1cc(Br)ccc1NS(=O)(=O)c1ccc(C)cc1 (stereo unspecified),24.6,"3.26 µM [falling, partial curve]","18.4 µM [rising, single point]"
Cc1ccc(S(=O)(=O)n2nc(OC(=O)C3CCCCC3)cc2N)cc1,7.77,–,"16.4 µM [falling, partial curve]"
O=C(c1ccccc1)[C@@H]1[C@@H](C(=O)c2ccc(F)cc2)[C@@]2(C(=O)Nc3ccccc32)[C@H]2c3ccccc3C=CN12,-21.5,–,"18.4 µM [falling, single point]"
C#CCNC(=O)/C=C/c1ccc(C)cc1,4.04,–,"9.2 µM [rising, partial curve]"
O=C(OCC(O)COc1ccccc1)c1ccc([N+](=O)[O-])cc1 (stereo unspecified),129,"16.4 µM [rising, partial curve]","0.184 µM [rising, full curve, poor fit]"
CCc1nc(SCC#N)c(C#N)cc1C,-23.9,"0.366 µM [falling, partial curve, poor fit]","6.51 µM [falling, partial curve, poor fit]"
Cc1cccc(CSc2ccc(-c3cccs3)nn2)c1,-20.5,–,"16.4 µM [falling, single point]"
O=S(=O)(Nc1ccc2c(c1)OCCO2)c1cccc2nsnc12,2.77,–,"1.16 µM [falling, full curve, poor fit]"
COc1cc(/C=c2/sc3nc(-c4ccccc4)c(-c4ccccc4)n3c2=O)cc(OC)c1OC,-16.1,–,"20.6 µM [falling, single point]"
CC1=CC(=C2N=C(c3ccccc3)OC2=O)C=C(C)O1,-2.58,–,"9.2 µM [rising, partial curve, poor fit]"
CCOC(=O)CN(Cc1sccc1C)C(=O)Nc1ccc(OC)cc1OC,53.7,"2.91 µM [rising, full curve]","29.1 µM [falling, single point]"
O=C(NCCc1csc(-c2cccnc2)n1)c1cccs1,8.89,–,"0.058 µM [rising, full curve, poor fit]"
O=C(CCn1c(=O)sc2ccccc21)NCc1ccccc1,30.7,"29.1 µM [rising, single point]","29.1 µM [rising, single point]"
O=C(NNC(=O)c1cc(S(=O)(=O)N2CCCCC2)ccc1Cl)c1ccccc1O,30,"23.1 µM [rising, single point]","29.1 µM [rising, single point]"
CC(C)(C)c1ccc(COC(=O)CN2C(=O)NC3(CCCC3)C2=O)cc1,-57.9,"14.6 µM [falling, partial curve]","29.1 µM [falling, single point]"
Cn1ncc([N+](=O)[O-])c1C(=O)NC1CCCCC1,16.4,–,–
Cc1ccc2nc(-c3cccs3)oc(=O)c2c1,45.4,"4.11 µM [rising, partial curve, poor fit]",–
COc1ccccc1O,-12.4,–,"0.259 µM [falling, full curve, poor fit]"

# Quoted at random: 4 compounds from above, in no set order.
SMILES,cell number change [%],AC50 [1],AC50 [2]
O=C(Nc1nnc(C2CCCCC2)s1)c1ccc(Br)s1,9.47,–,–
COc1ccc(NC(=O)CN(C)CC(=O)NCC2CCCCC2)cc1,25.3,–,–
COc1ccc(-c2cccc(NS(=O)(=O)c3cc([N+](=O)[O-])ccc3Cl)c2)nn1,27.3,–,–
CC(C)(CO)NCC(=O)Nc1cc(C(F)(F)F)cc(NC(=O)CNC(C)(C)CO)c1Cl,47,"0.731 µM [rising, full curve, poor fit]",–
